# According to the supplement of paper PMC8728848:
# The list shows a part of the results.
# B1: MUB70 (Lactobacillus reuteri) (protein)
# chain: CVHVQYIDGETDQMLRQDDLDGYTDETIPYSTAEGIKKFEGDGYELFKDNFPAGEKFDNDDTNDQFYTVIF
# Columns and labels:
# Assay in all cases: glycan array binding signal (z-score within array); higher = stronger binding
# Settings in all cases: glycan notation: IUPAC condensed, linker removed
# [1] = target: Neu5Ac(a2-3)Gal(b1-3)GlcNAc(b1-6)GalNAc
# Method in brief: (§1)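 Glycan array binding is given as a within-array Z-score, which can be read as non-binding when negative. The arrays, 3228 of them, came from the Consortium for Functional Glycomics database and were retained only where the protein sequence was available. Z-scores were averaged across arrays of the same protein sequence at different concentrations or buffers and across linkers.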
# [2] = target: Neu5Ac(a2-3)Gal(b1-3)GlcNAc6S
# Method in brief: as §1
# [3] = target: Neu5Ac(a2-3)Gal(b1-3)[Fuc(a1-4)]GlcNAc
# Method in brief: as §1
# [4] = target: Neu5Ac(a2-3)Gal(b1-3)[Fuc(a1-4)]GlcNAc(b1-3)Gal(b1-3)[Fuc(a1-4)]GlcNAc
# Method in brief: as §1
# [5] = target: Neu5Ac(a2-3)Gal(b1-3)[Fuc(a1-4)]GlcNAc(b1-3)Gal(b1-4)[Fuc(a1-3)]GlcNAc
# Method in brief: as §1
# [6] = target: Neu5Ac(a2-3)Gal(b1-3)[GlcNAc(b1-6)]GalNAc
# Method in brief: as §1
# [7] = target: Neu5Ac(a2-3)Gal(b1-3)[Neu5Ac(a2-6)]GalNAc
# Method in brief: as §1
# [8] = target: Neu5Ac(a2-3)Gal(b1-3)[Neu5Ac(a2-6)]GlcNAc(b1-3)[Fuc(a1-3)[Gal(b1-4)]GlcNAc(b1-6)]Gal(b1-4)Glc
# Method in brief: as §1
# [9] = target: Neu5Ac(a2-3)Gal(b1-3)]Neu5Ac(a2-3)Gal(b1-4)]GlcNAc
# Method in brief: as §1
# [10] = target: Neu5Ac(a2-3)Gal(b1-4)Glc
# Method in brief: as §1
# [11] = target: Neu5Ac(a2-3)Gal(b1-4)GlcNAc
# Method in brief: as §1
# [12] = target: Neu5Ac(a2-3)Gal(b1-4)GlcNAc(b1-2)Man
# Method in brief: as §1
# [13] = target: Neu5Ac(a2-3)Gal(b1-4)GlcNAc(b1-2)Man(a1-3)[GlcNAc(b1-4)][Neu5Ac(a2-3)Gal(b1-4)GlcNAc(b1-2)Man(a1-6)]Man(b1-4)GlcNAc(b1-4)GlcNAc
# Method in brief: as §1
# [14] = target: Neu5Ac(a2-3)Gal(b1-4)GlcNAc(b1-2)Man(a1-3)[Neu5Ac(a2-3)Gal(b1-4)GlcNAc(b1-2)Man(a1-6)]Man(b1-4)GlcNAc(b1-4)GlcNAc
# Method in brief: as §1
# [15] = target: Neu5Ac(a2-3)Gal(b1-4)GlcNAc(b1-2)Man(a1-3)[Neu5Ac(a2-3)Gal(b1-4)GlcNAc(b1-2)Man(a1-6)]Man(b1-4)GlcNAc(b1-4)[Fuc(a1-6)]GlcNAc
# Method in brief: as §1
# [16] = target: Neu5Ac(a2-3)Gal(b1-4)GlcNAc(b1-2)Man(a1-3)[Neu5Ac(a2-6)Gal(b1-4)GlcNAc(b1-2)Man(a1-6)]Man(b1-4)GlcNAc(b1-4)GlcNAc
# Method in brief: as §1
# [17] = target: Neu5Ac(a2-3)Gal(b1-4)GlcNAc(b1-2)[Neu5Ac(a2-3)Gal(b1-4)GlcNAc(b1-4)]Man(a1-3)[GlcNAc(b1-4)][Neu5Ac(a2-3)Gal(b1-4)GlcNAc(b1-2)[Neu5Ac(a2-3)Gal(b1-4)GlcNAc(b1-6)]Man(a1-6)]Man(b1-4)GlcNAc(b1-4)GlcNAc
# Method in brief: as §1
# [18] = target: Neu5Ac(a2-3)Gal(b1-4)GlcNAc(b1-2)[Neu5Ac(a2-3)Gal(b1-4)GlcNAc(b1-4)]Man(a1-3)[GlcNAc(b1-4)][Neu5Ac(a2-3)Gal(b1-4)GlcNAc(b1-4)Man(a1-6)]Man(b1-4)GlcNAc(b1-4)GlcNAc
# Method in brief: as §1
# [19] = target: Neu5Ac(a2-3)Gal(b1-4)GlcNAc(b1-2)[Neu5Ac(a2-3)Gal(b1-4)GlcNAc(b1-6)]Man(a1-6)[Neu5Ac(a2-3)Gal(b1-4)GlcNAc(b1-2)Man(a1-3)][GlcNAc(b1-4)]Man(b1-4)GlcNAc(b1-4)GlcNAc
# Method in brief: as §1
# [20] = target: Neu5Ac(a2-3)Gal(b1-4)GlcNAc(b1-3)Gal
# Method in brief: as §1
# [21] = target: Neu5Ac(a2-3)Gal(b1-4)GlcNAc(b1-3)Gal(b1-3)GlcNAc
# Method in brief: as §1
# [22] = target: Neu5Ac(a2-3)Gal(b1-4)GlcNAc(b1-3)Gal(b1-4)GlcNAc
# Method in brief: as §1
# [23] = target: Neu5Ac(a2-3)Gal(b1-4)GlcNAc(b1-3)Gal(b1-4)GlcNAc(b1-2)Man(a1-3)[Neu5Ac(a2-3)Gal(b1-4)GlcNAc(b1-3)Gal(b1-4)GlcNAc(b1-2)Man(a1-6)]Man(b1-4)GlcNAc(b1-4)GlcNAc
# Method in brief: as §1
# [24] = target: Neu5Ac(a2-3)Gal(b1-4)GlcNAc(b1-3)Gal(b1-4)GlcNAc(b1-3)Gal(b1-4)GlcNAc
# Method in brief: as §1
# [25] = target: Neu5Ac(a2-3)Gal(b1-4)GlcNAc(b1-3)Gal(b1-4)GlcNAc(b1-3)Gal(b1-4)GlcNAc(b1-2)Man(a1-3)[Neu5Ac(a2-3)Gal(b1-4)GlcNAc(b1-3)Gal(b1-4)GlcNAc(b1-3)Gal(b1-4)GlcNAc(b1-2)Man(a1-6)]GalNAc
# Method in brief: as §1
# [26] = target: Neu5Ac(a2-3)Gal(b1-4)GlcNAc(b1-3)Gal(b1-4)GlcNAc(b1-3)GalNAc
# Method in brief: as §1
# [27] = target: Neu5Ac(a2-3)Gal(b1-4)GlcNAc(b1-3)Gal(b1-4)GlcNAc(b1-3)[Neu5Ac(a2-3)Gal(b1-4)GlcNAc(b1-3)Gal(b1-4)GlcNAc(b1-6)]GalNAc
# Method in brief: as §1
# [28] = target: Neu5Ac(a2-3)Gal(b1-4)GlcNAc(b1-3)Gal(b1-4)GlcNAc(b1-6)[Gal(b1-3)]GalNAc
# Method in brief: as §1
# [29] = target: Neu5Ac(a2-3)Gal(b1-4)GlcNAc(b1-3)Gal(b1-4)[Fuc(a1-3)]GlcNAc
# Method in brief: as §1
# [30] = target: Neu5Ac(a2-3)Gal(b1-4)GlcNAc(b1-3)GalNAc
# Method in brief: as §1
# [31] = target: Neu5Ac(a2-3)Gal(b1-4)GlcNAc(b1-3)[Neu5Ac(a2-3)Gal(b1-4)GlcNAc(b1-6)]GalNAc
# Method in brief: as §1
# [32] = target: Neu5Ac(a2-3)Gal(b1-4)GlcNAc(b1-6)GalNAc
# Method in brief: as §1
# [33] = target: Neu5Ac(a2-3)Gal(b1-4)GlcNAc(b1-6)[Gal(b1-3)]GalNAc
# Method in brief: as §1
# [34] = target: Neu5Ac(a2-3)Gal(b1-4)GlcNAc(b1-6)[Neu5Ac(a2-3)Gal(b1-3)]GalNAc
# Method in brief: as §1
# [35] = target: Neu5Ac(a2-3)Gal(b1-4)GlcNAc6S
# Method in brief: as §1
# [36] = target: Neu5Ac(a2-3)Gal(b1-4)[Fuc(a1-3)]GlcNAc
# Method in brief: as §1
# [37] = target: Neu5Ac(a2-3)Gal(b1-4)[Fuc(a1-3)]GlcNAc(b1-2)Man
# Method in brief: as §1
# [38] = target: Neu5Ac(a2-3)Gal(b1-4)[Fuc(a1-3)]GlcNAc(b1-3)Gal
# Method in brief: as §1
# [39] = target: Neu5Ac(a2-3)Gal(b1-4)[Fuc(a1-3)]GlcNAc(b1-3)Gal(b1-4)GlcNAc
# Method in brief: as §1
# [40] = target: Neu5Ac(a2-3)Gal(b1-4)[Fuc(a1-3)]GlcNAc(b1-3)Gal(b1-4)[Fuc(a1-3)]GlcNAc(b1-3)Gal(b1-4)[Fuc(a1-3)]GlcNAc
# Method in brief: as §1
# [41] = target: Neu5Ac(a2-3)Gal(b1-4)[Fuc(a1-3)]GlcNAc(b1-3)GalNAc
# Method in brief: as §1
# [42] = target: Neu5Ac(a2-3)Gal(b1-4)[Fuc(a1-3)]GlcNAc(b1-6)[Gal(b1-3)]GalNAc
# Method in brief: as §1
# [43] = target: Neu5Ac(a2-3)Gal(b1-4)[Fuc(a1-3)]GlcNAc(b1-6)[Neu5Ac(a2-3)Gal(b1-3)]GalNAc
# Method in brief: as §1
# [44] = target: Neu5Ac(a2-3)Gal(b1-4)[Fuc(a1-3)]GlcNAc6S
# Method in brief: as §1
# [45] = target: Neu5Ac(a2-3)Gal6S(b1-4)GlcNAc
# Method in brief: as §1
binder,measurement,setting,value
B1,glycan array binding signal (z-score),[1],0.075
same,glycan array binding signal (z-score),[2],-0.001
same,glycan array binding signal (z-score),[3],0.289
same,glycan array binding signal (z-score),[4],0.176
same,glycan array binding signal (z-score),[5],-0.008
same,glycan array binding signal (z-score),[6],0.859
same,glycan array binding signal (z-score),[7],1.18
same,glycan array binding signal (z-score),[8],0.566
same,glycan array binding signal (z-score),[9],0.023
same,glycan array binding signal (z-score),[10],-0.662
same,glycan array binding signal (z-score),[11],0.399
same,glycan array binding signal (z-score),[12],0.365
same,glycan array binding signal (z-score),[13],-0.142
same,glycan array binding signal (z-score),[14],-0.039
same,glycan array binding signal (z-score),[15],-0.117
same,glycan array binding signal (z-score),[16],0.65
same,glycan array binding signal (z-score),[17],0.048
same,glycan array binding signal (z-score),[18],-0.534
same,glycan array binding signal (z-score),[19],0.003
same,glycan array binding signal (z-score),[20],0.155
same,glycan array binding signal (z-score),[21],0.45
same,glycan array binding signal (z-score),[22],-0.551
same,glycan array binding signal (z-score),[23],-0.132
same,glycan array binding signal (z-score),[24],-0.421
same,glycan array binding signal (z-score),[25],-0.117
same,glycan array binding signal (z-score),[26],1.52
same,glycan array binding signal (z-score),[27],0.133
same,glycan array binding signal (z-score),[28],-0.349
same,glycan array binding signal (z-score),[29],-0.54
same,glycan array binding signal (z-score),[30],0.669
same,glycan array binding signal (z-score),[31],0.095
same,glycan array binding signal (z-score),[32],0.749
same,glycan array binding signal (z-score),[33],0.538
same,glycan array binding signal (z-score),[34],-0.114
same,glycan array binding signal (z-score),[35],-0.857
same,glycan array binding signal (z-score),[36],-0.116
same,glycan array binding signal (z-score),[37],-0.157
same,glycan array binding signal (z-score),[38],-0.558
same,glycan array binding signal (z-score),[39],1.08
same,glycan array binding signal (z-score),[40],-0.105
same,glycan array binding signal (z-score),[41],1.64
same,glycan array binding signal (z-score),[42],-0.65
same,glycan array binding signal (z-score),[43],-0.675
same,glycan array binding signal (z-score),[44],-0.203
same,glycan array binding signal (z-score),[45],-0.909

# A different layout for part of the listing above:
binder	measurement	setting	value
B1	glycan array binding signal (z-score)	[29]	-0.54
same	glycan array binding signal (z-score)	[30]	0.669
same	glycan array binding signal (z-score)	[31]	0.095
same	glycan array binding signal (z-score)	[32]	0.749
